The exact form of at least one protein or probe is not confirmed. At least one result comes from cells or an extract, where the contact may be indirect. For some assays here: No signal at the amounts used counts as a negative.
Experiments:
[1] = tested on: HeLa cell nuclear extract (Homo sapiens); assay: EMSA; conditions: 5 ug nuclear extract; no FLAT-binding species similar to HoxB13; protein in an extract
[2] = tested on: RIN cell nuclear extract (FLAT-binding species) (Rattus norvegicus); assay: EMSA; conditions: 5 ug nuclear extract; shift similar to HoxB13; competed by unlabeled FLAT; protein in an extract

Sequence: GATCCCCTTGTTAATAATCTAATTACCCTAGG / GATCCCTAGGGTAATTAGATTATTAACAAGGG [FLAT element probe]
- binding result [1]: no binding
- binding result [2]: binds
